Assay results taken from US10927141B2 (priority 2018, dated 2021).
At least one compound was matched to its structure with a doubt left.

Format: physicochemical
Procedure: For each salt, approximately 5 mg compound was added into an 8 mL glass vial with a multi-hole aluminum foil cap, and kept at 60° C., 40° C./75% RH for 1 week. […] Appearance by visual observation were recorded followed by purity assessment and XPRD data collection on the residual solids.

With COC(=O)c1ccc2c(c1)NC(=O)/C2=C(\Nc1ccc(N(C)C(=O)CN2CCN(C)CC2)cc1)c1ccccc1.CS(=O)(=O)O [Compound 1 Mesylate (Form A)] the “resulting solid form (XRPD) after storage” value was “Compound 1 Mesylate (Form D)”.
